Experimental data: the supplement of paper PMC12819154, “High-throughput peptide-centric local stability assay extends protein–ligand identification to membrane proteins, tissues and bacteria” (Nature Structural & Molecular Biology, 2025)
The list shows a part of the results. Most entries show no effect beyond the scatter of the controls.

By UniProt entry, the sequences of proteins in these tests, tags left out. Where a name states a change or a piece, a line headed by the entry shows the natural chain unless it says otherwise.
UniProt Q9Y6J9: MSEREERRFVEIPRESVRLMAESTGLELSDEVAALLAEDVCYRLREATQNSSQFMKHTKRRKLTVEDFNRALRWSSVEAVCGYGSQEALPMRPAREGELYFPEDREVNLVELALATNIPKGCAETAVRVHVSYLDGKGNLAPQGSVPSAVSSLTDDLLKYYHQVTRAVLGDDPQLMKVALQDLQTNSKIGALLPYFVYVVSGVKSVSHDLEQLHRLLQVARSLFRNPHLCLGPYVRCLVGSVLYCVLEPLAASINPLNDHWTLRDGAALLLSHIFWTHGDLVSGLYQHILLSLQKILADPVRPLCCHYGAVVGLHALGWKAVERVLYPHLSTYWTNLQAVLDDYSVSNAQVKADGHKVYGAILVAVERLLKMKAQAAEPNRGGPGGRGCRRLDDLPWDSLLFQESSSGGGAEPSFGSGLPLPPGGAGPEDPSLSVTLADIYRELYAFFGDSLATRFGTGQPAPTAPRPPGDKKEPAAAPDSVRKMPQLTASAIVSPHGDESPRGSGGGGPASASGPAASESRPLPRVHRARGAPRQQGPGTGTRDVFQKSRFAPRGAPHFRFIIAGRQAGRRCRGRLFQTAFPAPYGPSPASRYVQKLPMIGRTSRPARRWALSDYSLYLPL
UniProt Q9Y4P3: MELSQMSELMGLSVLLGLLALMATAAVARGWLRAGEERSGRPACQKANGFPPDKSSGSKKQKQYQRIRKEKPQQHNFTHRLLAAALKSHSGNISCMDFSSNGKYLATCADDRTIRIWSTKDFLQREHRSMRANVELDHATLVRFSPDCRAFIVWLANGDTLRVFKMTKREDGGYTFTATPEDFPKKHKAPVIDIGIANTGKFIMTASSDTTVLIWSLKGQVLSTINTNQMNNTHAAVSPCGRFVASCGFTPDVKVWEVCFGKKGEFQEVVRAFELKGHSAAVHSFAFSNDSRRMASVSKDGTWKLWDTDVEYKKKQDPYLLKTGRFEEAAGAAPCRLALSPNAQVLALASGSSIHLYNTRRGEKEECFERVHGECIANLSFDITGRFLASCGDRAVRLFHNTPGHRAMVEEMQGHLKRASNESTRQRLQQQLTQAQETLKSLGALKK
UniProt Q9Y5J7: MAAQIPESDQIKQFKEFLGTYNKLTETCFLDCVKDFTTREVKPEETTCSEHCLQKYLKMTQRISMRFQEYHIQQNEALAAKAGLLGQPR
UniProt Q9Y4W6: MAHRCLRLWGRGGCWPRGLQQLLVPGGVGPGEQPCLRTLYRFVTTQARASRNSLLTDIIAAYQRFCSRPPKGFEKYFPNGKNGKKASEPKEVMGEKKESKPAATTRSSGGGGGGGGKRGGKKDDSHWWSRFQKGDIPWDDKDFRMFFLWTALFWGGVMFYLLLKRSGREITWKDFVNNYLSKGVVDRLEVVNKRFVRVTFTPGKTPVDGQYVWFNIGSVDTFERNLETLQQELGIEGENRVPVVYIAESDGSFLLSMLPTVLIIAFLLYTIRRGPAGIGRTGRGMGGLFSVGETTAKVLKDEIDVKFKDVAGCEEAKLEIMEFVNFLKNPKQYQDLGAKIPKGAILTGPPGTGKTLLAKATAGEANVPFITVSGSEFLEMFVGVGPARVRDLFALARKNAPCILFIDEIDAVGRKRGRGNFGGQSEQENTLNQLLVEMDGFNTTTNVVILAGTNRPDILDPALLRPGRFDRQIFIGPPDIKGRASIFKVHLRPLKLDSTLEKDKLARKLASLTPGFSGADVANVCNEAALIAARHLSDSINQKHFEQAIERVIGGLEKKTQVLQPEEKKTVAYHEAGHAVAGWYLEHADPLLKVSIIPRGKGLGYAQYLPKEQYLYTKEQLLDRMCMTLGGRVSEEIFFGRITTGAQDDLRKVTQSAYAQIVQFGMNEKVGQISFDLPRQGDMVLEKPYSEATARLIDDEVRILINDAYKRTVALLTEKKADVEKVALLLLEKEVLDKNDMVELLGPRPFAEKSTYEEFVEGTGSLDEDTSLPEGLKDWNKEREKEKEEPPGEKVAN
UniProt Q9Y3B8: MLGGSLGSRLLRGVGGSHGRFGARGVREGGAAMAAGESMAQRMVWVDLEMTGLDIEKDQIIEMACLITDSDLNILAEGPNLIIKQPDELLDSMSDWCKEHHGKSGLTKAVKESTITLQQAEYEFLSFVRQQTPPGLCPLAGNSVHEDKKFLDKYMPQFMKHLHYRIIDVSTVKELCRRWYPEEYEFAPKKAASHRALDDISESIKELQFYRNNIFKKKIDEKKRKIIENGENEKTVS
UniProt Q9Y6K9, whole entry: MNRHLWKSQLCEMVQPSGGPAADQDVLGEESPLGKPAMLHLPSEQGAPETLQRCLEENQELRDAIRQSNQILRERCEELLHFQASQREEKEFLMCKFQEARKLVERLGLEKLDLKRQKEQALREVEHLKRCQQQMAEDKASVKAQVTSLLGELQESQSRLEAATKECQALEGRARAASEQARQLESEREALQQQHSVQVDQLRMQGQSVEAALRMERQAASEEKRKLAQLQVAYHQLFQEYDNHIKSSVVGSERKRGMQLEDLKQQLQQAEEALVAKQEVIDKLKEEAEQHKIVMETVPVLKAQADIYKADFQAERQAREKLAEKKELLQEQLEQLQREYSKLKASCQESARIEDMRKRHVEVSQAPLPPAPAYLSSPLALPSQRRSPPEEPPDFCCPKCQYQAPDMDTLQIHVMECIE
UniProt Q9Y4F4: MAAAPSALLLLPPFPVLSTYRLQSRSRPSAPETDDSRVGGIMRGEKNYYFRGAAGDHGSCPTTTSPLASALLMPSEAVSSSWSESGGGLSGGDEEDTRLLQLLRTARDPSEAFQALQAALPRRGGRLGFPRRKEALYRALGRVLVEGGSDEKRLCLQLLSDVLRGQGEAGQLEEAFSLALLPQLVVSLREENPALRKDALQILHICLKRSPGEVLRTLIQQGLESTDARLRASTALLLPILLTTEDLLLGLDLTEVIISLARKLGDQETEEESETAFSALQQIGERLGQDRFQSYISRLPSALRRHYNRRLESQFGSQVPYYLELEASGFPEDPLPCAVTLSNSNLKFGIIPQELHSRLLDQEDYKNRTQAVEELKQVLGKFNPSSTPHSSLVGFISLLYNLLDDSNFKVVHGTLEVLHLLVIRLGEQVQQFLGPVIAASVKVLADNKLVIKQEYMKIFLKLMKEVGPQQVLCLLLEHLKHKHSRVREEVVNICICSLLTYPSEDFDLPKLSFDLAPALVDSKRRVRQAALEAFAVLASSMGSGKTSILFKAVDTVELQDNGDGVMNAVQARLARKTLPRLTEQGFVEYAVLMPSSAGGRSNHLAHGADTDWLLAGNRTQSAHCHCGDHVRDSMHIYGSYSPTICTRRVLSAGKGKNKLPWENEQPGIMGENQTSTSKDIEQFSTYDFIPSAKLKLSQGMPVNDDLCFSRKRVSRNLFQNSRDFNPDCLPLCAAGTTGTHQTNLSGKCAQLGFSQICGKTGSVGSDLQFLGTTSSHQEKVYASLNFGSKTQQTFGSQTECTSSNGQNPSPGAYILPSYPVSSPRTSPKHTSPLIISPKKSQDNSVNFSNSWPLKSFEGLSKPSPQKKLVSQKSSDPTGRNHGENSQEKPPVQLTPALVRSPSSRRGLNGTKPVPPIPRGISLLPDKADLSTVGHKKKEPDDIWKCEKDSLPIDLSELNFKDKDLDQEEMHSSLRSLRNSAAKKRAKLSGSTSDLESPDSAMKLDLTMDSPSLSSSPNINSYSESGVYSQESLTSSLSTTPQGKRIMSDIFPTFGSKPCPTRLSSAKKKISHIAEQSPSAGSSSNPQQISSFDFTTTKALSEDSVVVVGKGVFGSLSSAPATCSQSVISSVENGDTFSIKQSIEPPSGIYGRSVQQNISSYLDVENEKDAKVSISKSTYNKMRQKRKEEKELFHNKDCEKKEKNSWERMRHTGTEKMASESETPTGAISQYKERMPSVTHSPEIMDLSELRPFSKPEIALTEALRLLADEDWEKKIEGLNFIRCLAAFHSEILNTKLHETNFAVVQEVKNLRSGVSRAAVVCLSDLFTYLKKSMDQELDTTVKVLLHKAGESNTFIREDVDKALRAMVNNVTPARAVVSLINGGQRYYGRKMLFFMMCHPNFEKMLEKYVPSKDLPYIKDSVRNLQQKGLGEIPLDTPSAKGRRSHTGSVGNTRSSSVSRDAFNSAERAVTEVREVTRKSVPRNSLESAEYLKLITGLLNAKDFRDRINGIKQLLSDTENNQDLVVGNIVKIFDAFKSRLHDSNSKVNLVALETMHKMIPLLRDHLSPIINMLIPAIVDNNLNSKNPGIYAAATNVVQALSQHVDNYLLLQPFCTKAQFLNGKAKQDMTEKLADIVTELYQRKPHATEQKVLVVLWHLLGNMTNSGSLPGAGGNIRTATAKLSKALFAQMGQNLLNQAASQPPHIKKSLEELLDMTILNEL
UniProt Q9Y462: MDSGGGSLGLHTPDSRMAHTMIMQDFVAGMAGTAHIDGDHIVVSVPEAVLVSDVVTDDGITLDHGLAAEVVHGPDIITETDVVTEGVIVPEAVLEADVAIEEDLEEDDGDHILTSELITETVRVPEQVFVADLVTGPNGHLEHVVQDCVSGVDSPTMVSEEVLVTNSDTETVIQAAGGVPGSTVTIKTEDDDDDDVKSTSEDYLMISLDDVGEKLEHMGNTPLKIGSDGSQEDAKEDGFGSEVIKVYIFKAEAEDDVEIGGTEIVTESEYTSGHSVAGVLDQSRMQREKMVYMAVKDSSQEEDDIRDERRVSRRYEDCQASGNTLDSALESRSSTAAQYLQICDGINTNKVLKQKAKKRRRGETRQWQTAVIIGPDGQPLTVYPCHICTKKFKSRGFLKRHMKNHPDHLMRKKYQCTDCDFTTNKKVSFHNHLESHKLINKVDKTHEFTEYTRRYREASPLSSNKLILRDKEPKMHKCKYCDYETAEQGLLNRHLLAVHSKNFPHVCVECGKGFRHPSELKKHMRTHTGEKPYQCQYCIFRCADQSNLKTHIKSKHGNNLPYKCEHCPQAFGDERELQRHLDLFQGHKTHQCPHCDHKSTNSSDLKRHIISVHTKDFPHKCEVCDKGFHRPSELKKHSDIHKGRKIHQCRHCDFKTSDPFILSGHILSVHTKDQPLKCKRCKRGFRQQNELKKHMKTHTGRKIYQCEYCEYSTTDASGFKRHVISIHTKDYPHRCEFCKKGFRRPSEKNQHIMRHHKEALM
UniProt Q9Y2D8: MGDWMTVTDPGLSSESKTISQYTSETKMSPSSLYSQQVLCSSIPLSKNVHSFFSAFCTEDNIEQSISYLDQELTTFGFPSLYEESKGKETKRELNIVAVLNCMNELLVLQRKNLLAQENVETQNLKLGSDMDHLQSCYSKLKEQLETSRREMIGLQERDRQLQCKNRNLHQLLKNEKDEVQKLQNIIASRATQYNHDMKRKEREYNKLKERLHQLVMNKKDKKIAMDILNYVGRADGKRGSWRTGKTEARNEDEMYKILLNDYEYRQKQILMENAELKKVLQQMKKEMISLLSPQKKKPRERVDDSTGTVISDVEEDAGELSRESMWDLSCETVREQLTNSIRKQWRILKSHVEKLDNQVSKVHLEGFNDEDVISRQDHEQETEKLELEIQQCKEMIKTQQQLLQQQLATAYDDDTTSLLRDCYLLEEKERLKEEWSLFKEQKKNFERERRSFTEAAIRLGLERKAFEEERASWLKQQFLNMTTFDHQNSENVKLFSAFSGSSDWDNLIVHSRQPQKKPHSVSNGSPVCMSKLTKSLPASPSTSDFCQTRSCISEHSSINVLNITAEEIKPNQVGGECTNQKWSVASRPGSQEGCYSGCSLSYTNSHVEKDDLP

Compound: Cc1nc(Nc2ncc(C(=O)Nc3c(C)cccc3Cl)s2)cc(N2CCN(CCO)CC2)n1 [dasatinib]
Assay: log2 fold change of tryptic peptide abundance, ligand vs vehicle (limited proteolysis) (log2 ratio); higher = more trypsin-susceptible (destabilized)
Conditions: ligand concentration: 5 uM; sample: K562 cleared lysate

| Target | log2 fold change |
| --- | --- |
| TAF6L (peptide sequence: AVLGDDPQLMK, peptide start residue: 167) (UniProt Q9Y6J9) | -0.266 |
| TBL2 (peptide sequence: AMVEEMQGHLKR, peptide start residue: 407) (UniProt Q9Y4P3) | -0.233 |
| TIMM9 (peptide sequence: FQEYHIQQNEALAAK, peptide start residue: 67) (UniProt Q9Y5J7) | -0.129 |
| AFG3L2 (peptide sequence: HFEQAIER, peptide start residue: 544) (UniProt Q9Y4W6) | 0.317 |
| MRPS33 (peptide sequence: LFGEVTRPTNSK, peptide start residue: 18) (UniProt Q9Y291) | 0.138 |
| REXO2 (peptide sequence: FLDKYMPQFMK, peptide start residue: 150) (UniProt Q9Y3B8) | 0.135 |
| IKBKG (peptide sequence: ECQALEGR, peptide start residue: 166) (UniProt Q9Y6K9) | 0.066 |
| UniProt Q9Y4F4 (peptide sequence: KPHATEQK, peptide start residue: 1642) | -0.268 |
| UniProt Q9Y462 (peptide sequence: VDKTHEFTEYTR, peptide start residue: 442) | -0.194 |
| UniProt Q9Y5S9 (peptide sequence: NIHLNLDR, peptide start residue: 101) | 0.197 |
| SSX2IP (peptide sequence: QDHEQETEKLELEIQQCK, peptide start residue: 377) (UniProt Q9Y2D8) | 0.382 |

Part of the list above, bar-delimited.
Target | log2 fold change
UniProt Q9Y4F4 (peptide sequence: KPHATEQK, peptide start residue: 1642) | -0.268
UniProt Q9Y462 (peptide sequence: VDKTHEFTEYTR, peptide start residue: 442) | -0.194
